Earlier results, collected in patent US11633402B2, “RET inhibitor” (CHUGAI SEIYAKU KABUSHIKI KAISHA, priority 2012, dated 2023).
At least one structure is not confirmed: it was looked up by name or label, or the drawing left a doubt.

Test system: cell lines expressing KIF5B-RET
Details: J Clin Oncol 30, 2012, suppl; Abstract no: 7510; cited from earlier work

In the case of `Cc1ccc(C(=O)Nc2ccc(CN3CCN(C)CC3)c(C(F)(F)F)c2)cc1C#Cc1cnc2cccnn12` [ponatinib], the “cell growth inhibitory effect against cell lines expressing KIF5B-RET” value is given as “cell growth inhibitory effect”.
